Earlier results, collected in patent US20160154122A1, “Scintillating Organic Materials and Methods For Detecting Neutron and Gamma Radiation” (Nanoptics, Incorporated, priority 2011, published 2016).
For at least one compound, name, drawing or mass did not settle the structure.

Details: cited from earlier work

C[S+](C)[O-] [DMSO, Dimethyl Sulfoxide]
Miscibility with water: 25 g/100 g H20
